The source of these data is paper PMC10899596.

By UniProt entry, the sequences of proteins in these tests, tags left out. Where a name states a change or a piece, a line headed by the entry shows the natural chain unless it says otherwise. Residues count along the entry.
UniProt Q9NZQ7: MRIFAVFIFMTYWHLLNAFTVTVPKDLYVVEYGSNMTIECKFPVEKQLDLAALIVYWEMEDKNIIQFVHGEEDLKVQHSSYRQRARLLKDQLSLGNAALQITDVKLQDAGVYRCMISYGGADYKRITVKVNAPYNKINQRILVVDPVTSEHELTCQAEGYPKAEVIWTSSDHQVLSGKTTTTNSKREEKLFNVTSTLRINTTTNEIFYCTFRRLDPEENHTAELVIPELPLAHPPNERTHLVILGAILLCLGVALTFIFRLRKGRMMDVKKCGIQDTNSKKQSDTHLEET
programmed death ligand-1 (PD-L1), endogenous (human (endogenous in H1299, H23 and HEK293T)): residues 19-290 of Q9NZQ7

No constants are given. Whether binding was seen depends on the method and setting. For part of these data: In cells and extracts the contact can be indirect. Some entries that bind do so weakly or less than the wild type.

Experiment [1] concerns the target PD-L1-SF (PD-L1 tagged with SF) (UniProt Q9NZQ7). Put plainly: pull-down; HEK293T cells transfected with an SF-tagged construct; lysates (NETN buffer) incubated with S-protein agarose 4 hours at 4 °C, washed 4 times with NETN; immunoblotting with PD-L1 or KEAP1 antibodies.
Experiment [2] deals with programmed death ligand-1 (PD-L1), endogenous (human (endogenous in H1299, H23 and HEK293T)) (UniProt Q9NZQ7). Briefly: co-IP; endogenous proteins; H1299 and H23 lysates (NETN buffer) immunoprecipitated with IgG, KEAP1 or PD-L1 antibodies bound to Protein A/G agarose or magnetic beads, 1 hour at room temperature, 4 washes with NETN; immunoblotting.
The target of experiment [3] is purified GST-KEAP1 protein (UniProt Q14145). Briefly: pull-down; purified GST-KEAP1 and PD-L1-Flag incubated with GST-tag Purification Resin 4 hours at 4 °C, washed 3 times with PBS; immunoblotting; both purified.

With “Kelch-like ECH-associated protein 1 (KEAP1), endogenous (from UniProt Q14145 1-624) (other; other documents disagree on this pair)”, the binding result in experiment [1] and in experiment [2] was “binds” each time. On to “purified PD-L1-Flag protein (from UniProt Q9NZQ7 19-238)”, for which the binding result in experiment [3] is listed as “binds”.
